Results taken from PMC8803954.
Results are given in words; binding and its absence hold for the method and conditions named. Some entries that bind do so weakly or less than the wild type. Sequences can lack the tags named with a protein.

What was measured:
Assay in all cases: two-hybrid; Gal4 DNA-binding domain hybrids of Rgt2-CTD with the Gal4 activation domain hybrid of Yck1 in yeast PJ69-4A; GAL-HIS3 reporter (SC-leu-trp-his + 20 mM 3-AT) and GAL-lacZ reporter (X-gal)
[1] = biological target: T1, BD-Rgt2-CTD (546-763) Δ665–696 (S. cerevisiae) (UniProt Q12300)
T1 sequence: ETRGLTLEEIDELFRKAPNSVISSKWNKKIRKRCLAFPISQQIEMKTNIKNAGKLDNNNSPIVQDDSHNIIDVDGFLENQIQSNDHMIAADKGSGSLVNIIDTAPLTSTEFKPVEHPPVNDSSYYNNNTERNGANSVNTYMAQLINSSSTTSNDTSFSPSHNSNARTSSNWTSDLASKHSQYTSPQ

[2] = biological target: T2, BD-Rgt2-CTD (546-763) (S. cerevisiae) (UniProt Q12300)
T2 sequence: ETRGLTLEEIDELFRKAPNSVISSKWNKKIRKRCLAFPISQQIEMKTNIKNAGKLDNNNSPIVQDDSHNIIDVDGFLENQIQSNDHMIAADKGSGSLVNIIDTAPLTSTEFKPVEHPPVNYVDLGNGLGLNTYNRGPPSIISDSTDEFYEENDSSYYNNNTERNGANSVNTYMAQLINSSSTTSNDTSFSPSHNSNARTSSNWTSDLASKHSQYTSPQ

[3] = biological target: T3, BD-Rgt2 (545-624) (S. cerevisiae) (UniProt Q12300)
T3 sequence: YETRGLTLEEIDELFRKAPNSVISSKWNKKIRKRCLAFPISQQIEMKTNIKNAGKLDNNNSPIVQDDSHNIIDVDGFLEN

Substance: palmitoylation-defective AD-Yck1 (lacking the palmitoylation sites Cys537 and Cys538) (from UniProt P23291 1-538) (enzyme)
- binding [1]: no binding
- binding [2]: binds
- binding [3]: no binding
